Experimental data published in PubChem BioAssay AID493014 (National Center for Advancing Translational Sciences (NCATS), 2011).
The list shows a part of the results. The main result of the screen is listed elsewhere. These columns were measured beside it and carry no call. Most of these compounds were active or inconclusive in the main read-out, so they are no random draw. The note in brackets gives the kind of curve behind each potency; many fits are weak.

Assay: qHTS Assay to Find Inhibitors of Chronic Active B-Cell Receptor Signaling
Conditions: ABC-DLBCL IkBa-CBG/CBR reporter, luminescence ratio (green luciferase fused to IkBa over red control in TMD8 lymphoma cells), 4 h
Summary of the method: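 Compounds up to 46 uM were incubated four hours with TMD8 cells whose green CBG68 luciferase is fused to IkappaBalpha; red CBR luminescence normalised the signal, and concentration-effect curves were fitted to fusion, red and ratio data.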

[1] = measured here: CBR red luminescence, cell number
[2] = measured here: IkBa-CBG green luminescence

In the case of S=c1[nH]nc(-c2cccs2)n1Cc1ccccc1, the AC50 [1] is reported as 35.5 µM [rising, single point].
In the case of COc1cccc(NCc2cc3c(C(C)(C)C)nn(-c4ccccc4)c3[nH]c2=O)c1, the AC50 [1] is reported as 29.1 µM [falling, single point].
For CC(NC(=O)/C(C#N)=C/c1cccs1)c1ccccc1 (configuration not stated), the AC50 [1] was 1.58 µM [rising, partial curve, poor fit].
In the case of CCCN1CCN(CCCNC(=O)c2ccc3nc(N4CCC(C)CC4)sc3c2)CC1, the AC50 [1] is reported as 0.398 µM [falling, partial curve, poor fit].
In the case of Cc1cc(NC(=O)CSc2nc3ccsc3c(=O)n2NC(=O)c2ccccc2)no1, the AC50 [1] is reported as 0.58 µM [rising, full curve, poor fit].
In the case of CC1CCC(C(C)C)C(OC(=O)COC(=O)c2cccn2C)C1 (configuration not stated), the AC50 [1] is reported as 6.31 µM [rising, full curve].
In the case of O=C(CCl)Nc1ccc(Sc2ccc(NC(=O)CCl)cc2)cc1, the AC50 [1] is reported as 35.5 µM [falling, single point].
With COc1ccc(NC(=O)CC2CC3CCC2C3)cc1S(=O)(=O)N1CCOCC1 (configuration not stated) the AC50 [1] was 25.9 µM [rising, single point].
With N#Cc1c(-c2ccccc2)cc(-c2ccccc2)[nH]c1=O the AC50 [1] was 5.62 µM [falling, single point].
With COc1cc(/C=N/NC(=O)c2nonc2C)ccc1O the AC50 [1] was 12.6 µM [falling, partial curve, poor fit].
With CCOc1ccc2[nH]c3c(NCCOC)ncnc3c2c1 the AC50 [1] was 12.6 µM [rising, single point].
In the case of Cc1nc2cc(NC(=O)N3c4ccccc4CC3C)ccc2n1C (configuration not stated), the AC50 [1] is reported as 16.4 µM [falling, single point].
For Cc1cc(=O)oc2c3c(cc(OCC(=O)Nc4ccc(CCO)cc4)c12)OC(C)(C)CC3, the AC50 [1] was 3.16 µM [rising, partial curve].
With O=C(N/N=C/c1ccc(Br)o1)c1ccc2c(c1)OCCO2 the AC50 [1] was 13 µM [falling, partial curve].
For O=S(=O)(c1ccc2ccccc2c1)N1CCCCCC1, the AC50 [1] was 10 µM [falling, partial curve, poor fit] and the AC50 [2] was 20 µM [rising, partial curve, poor fit].
In the case of CCCN(CCC)Cc1cc2ccccc2c2c1COC2, the AC50 [1] is reported as 25.9 µM [rising, partial curve, poor fit].
In the case of C[C@@H]1C[C@H](Nc2ccccc2)c2ccccc2N1C(=O)c1cccnc1, the AC50 [1] is reported as 35.5 µM [falling, single point].
For O=C1C=C(c2ccc(O)cc2)C[C@@H](c2ccc3c(c2)OCO3)C1, the AC50 [1] was 29.1 µM [falling, single point].
In the case of COc1cc(C2C(N3C(=O)c4ccccc4C3=O)C(=O)N2c2cccc(C)c2)cc(OC)c1OC (configuration not stated), the AC50 [2] is reported as 10.3 µM [falling, partial curve].
In the case of CC1=NN(C(N)=S)C(=O)C1N=Nc1ccccc1 (configuration not stated), the AC50 [1] is reported as 2.82 µM [falling, full curve] and the AC50 [2] is reported as 1.12 µM [falling, full curve].
With COc1ccc(-c2nnn(CC#N)n2)cc1OC the AC50 [1] was 8.2 µM [rising, partial curve, poor fit].
With COc1ccccc1C(=O)NNC1=C(C(=O)C(F)(F)F)CCC1 the AC50 [1] was 0.562 µM [falling, partial curve, poor fit].
For O=C(O)C1CC(c2ccccc2)=Nc2ccccc2S1 (configuration not stated), the AC50 [1] was 14.1 µM [falling, single point].
In the case of CC1CN(C(=O)C(c2ccccc2)c2ccccc2)CC(C)O1 (configuration not stated), the AC50 [1] is reported as 6.51 µM [falling, single point].
For O/C(=C\c1ccc2ccccc2n1)c1ccc(O)cc1O, the AC50 [1] was 11.2 µM [falling, single point].
With CCCOc1ccc(C(=O)NNC(=S)NC(=O)c2ccccc2[N+](=O)[O-])cc1 the AC50 [1] was 11.2 µM [rising, single point].
For CCN(CC)c1ccc(C2=NNC(=O)CC2C)cc1[N+](=O)[O-] (configuration not stated), the AC50 [1] was 35.5 µM [rising, single point].
For Cc1cc(C)c2c(N)c(C(=O)Nc3ccccc3F)sc2n1, the AC50 [1] was 3.16 µM [falling, partial curve, poor fit].
With Cc1ccc(SCc2ccc(C(=O)N3CCCC3)cc2)cc1 the AC50 [1] was 20 µM [falling, single point].
For O=C(CCN1CCN(C(=O)c2ccccc2)CC1)c1ccc(Br)cc1, the AC50 [1] was 15.8 µM [falling, single point].
With O=C(c1cc2ccccc2o1)N1CCN(c2ccccc2Cl)CC1 the AC50 [1] was 20.6 µM [rising, single point].
For CN1CCN(CCCCOc2ccccc2-c2ccccc2)CC1, the AC50 [1] was 12.6 µM [falling, partial curve, poor fit].
In the case of COc1ccc(Nc2nc(-c3sc(C)nc3C)cs2)c(OC)c1, the AC50 [1] is reported as 31.6 µM [falling, single point].
For CC1=NN(c2ccc(C(=O)O)cc2)C(=O)CC1, the AC50 [1] was 2.51 µM [falling, full curve].
With O=C(Nc1ccccc1)C1=C[C@@H](c2ccc(C(F)(F)F)cc2)C[C@@H](OCc2ccc(CO)cc2)O1 the AC50 [1] was 3.16 µM [rising, partial curve, poor fit].
With C=CCC[C@@H](Cc1ccc(F)cc1)C(=O)OCCNC(=O)[C@@H](CC=C)CC(=O)N(CCO)Cc1ccccc1 the AC50 [1] was 18.4 µM [falling, single point].
In the case of COc1cccc2sc(NNC(=O)C3=COCCO3)nc12, the AC50 [1] is reported as 20 µM [falling, single point].
For CCC(C(=O)OCC(=O)NC(=O)c1ccccc1)c1ccccc1 (configuration not stated), the AC50 [1] was 3.26 µM [rising, full curve, poor fit].
In the case of O=C(O)c1cc2c(s1)-c1ccccc1CC2, the AC50 [1] is reported as 4.11 µM [falling, full curve].
In the case of COCCCNC(=O)CC1C[C@H](C(=O)N2CCOCC2)[C@@]2(CCC3CCCC3)c3[nH]c4ccc(OC)cc4c3CCN2C1=O (some centres not stated), the AC50 [1] is reported as 23.1 µM [rising, partial curve].
For Clc1cccc(Cl)c1/C=N\Nc1nccs1, the AC50 [1] was 35.5 µM [falling, single point].
For COc1ccc(Cl)cc1NC(=O)CN(C)C(=O)Cc1ccc2c(c1)CCC2, the AC50 [1] was 6.31 µM [falling, partial curve, poor fit].
With O=[N+]([O-])c1ccc(O)c(C2=NNC(c3ccccc3F)C2)c1 (configuration not stated) the AC50 [1] was 12.6 µM [falling, single point].
For C/C=C1\C(OC2OC(CO)C(O)C(O)C2O)OC=C(C(=O)OC)C1CC(=O)OCC1C(C)C(OC(=O)CC2C(C(=O)OC)=COC(OC3OC(CO)C(O)C(O)C3O)/C2=C\C)CC1C(CO)CO (configuration not stated), the AC50 [1] was 25.1 µM [rising, single point].
With CC1CN(C(=O)c2cccc(S(=O)(=O)N3CCOCC3)c2)CC(C)O1 (configuration not stated) the AC50 [1] was 20 µM [rising, partial curve, poor fit].
For O=C(CN1CCN(S(=O)(=O)c2ccccc2)CC1)Nc1ccccc1Cl, the AC50 [1] was 3.16 µM [rising, partial curve, poor fit].
For Cc1nc2ccccc2n1CCC(=O)O, the AC50 [1] was 2.91 µM [falling, single point].
For CCOC(=O)c1c(C)[nH]c(C(=O)Nc2ccc3c(c2)OCO3)c1C, the AC50 [1] was 0.891 µM [falling, full curve, poor fit].
In the case of O=C1CCCN1CCCNC(=S)Nc1ccc(F)c(Cl)c1, the AC50 [1] is reported as 28.2 µM [falling, partial curve, poor fit].
In the case of Brc1ccc(NC2=Nc3ccccc3CC2)cc1, the AC50 [1] is reported as 0.316 µM [rising, full curve, poor fit].
In the case of COc1nnc(-c2ccc(N3CCOCC3)c(NC(C)=O)c2)c2ccccc12, the AC50 [1] is reported as 32.6 µM [falling, single point].
With Cc1ccc(CSCC(=O)N/N=C/c2sccc2C)cc1 the AC50 [1] was 7.31 µM [falling, single point].
With Cc1ccc2cc(CCNC(=O)c3ccc4c(c3)OCO4)c(=O)[nH]c2c1C the AC50 [1] was 3.26 µM [rising, full curve].
In the case of Clc1ccc(OCCCCN2CCc3ccccc3C2)cc1, the AC50 [1] is reported as 14.1 µM [rising, single point].
In the case of Cc1ccc(C(=O)Nc2cccnc2)cc1S(=O)(=O)N1CCCCC1, the AC50 [1] is reported as 35.5 µM [falling, single point].
For CCc1ccc(N2CC(C(=O)OCC(=O)Nc3ccc(C#N)cc3)CC2=O)cc1 (configuration not stated), the AC50 [1] was 23.1 µM [rising, single point].
In the case of CCN(CC)CCCn1c2c(c(SCC(=O)Nc3cccc4ccccc34)nc1=O)CCC2, the AC50 [1] is reported as 16.4 µM [falling, partial curve].
For CCN(CC)S(=O)(=O)c1ccc(Cl)c(NC(=O)COC(=O)c2c(C)noc2C)c1, the AC50 [1] was 14.6 µM [falling, partial curve].
For CCCNC(=S)NCc1ccc(Cl)cc1, the AC50 [1] was 25.9 µM [rising, partial curve, poor fit].
For COc1cc([N+](=O)[O-])ccc1-c1ccc(/C=N/NC(=O)c2ccccc2O)o1, the AC50 [1] was 4.47 µM [falling, partial curve, poor fit].
With Cc1ccc(S(=O)(=O)CCC(=O)OCC(=O)N2CCc3ccccc32)cc1 the AC50 [1] was 6.31 µM [falling, partial curve, poor fit].
With CCOC(=O)N/N=C\c1ccc(OC(=O)c2ccco2)cc1 the AC50 [1] was 35.5 µM [falling, single point].
With CCn1c(=O)cc(OCC(=O)Nc2nc(C)cs2)c2ccccc21 the AC50 [1] was 1.64 µM [falling, partial curve, poor fit].
For CCN(CC)CCCNC(=S)Nc1ccc(Br)cc1, the AC50 [1] was 3.98 µM [rising, partial curve, poor fit].
With O=[N+]([O-])c1ccc(OCc2cn([C@@H](CO)c3ccccc3)nn2)c(Br)c1 the AC50 [1] was 0.794 µM [rising, full curve].
